{
  "source": "PubChem BioAssay AID1688",
  "about": "(National Center for Advancing Translational Sciences (NCATS), 2009)",
  "note": "Hit rate of the full screen: of about 220,000 compounds, about 2,400 (1.1%) were called active. This list was built around the results that the source calls inconclusive (neither active nor inactive); the mix of calls is not that of the screen. The call rests on the fitted dose curve; in most records, active means well fitted inhibition curve with a large enough effect; inconclusive means small, poorly fitted or top-dose-only effect, or effect the other way; inactive means no such curve, though single readings can be large or run the other way. Where the call is inconclusive, the potency comes from a doubtful curve fit. On the % scale 0 is the no-effect control and ±100 the full control effect; potency means the concentration at half of the fitted maximal effect.",
  "data": [
    {"assay": "qHTS Multiplex Assay to Identify Dual Action Probes in a Cell Model of Huntington: Aggregate Formation (GFP); further: nearly all actives have a fitted effect of over 60% in size", "settings": "PC12 HttQ103-GFP aggregates, Acumen cytometry, 40 h; activity change, negative = inhibition: at 46.1 µM (top of the series) unless noted", "in_short": "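Compounds (qHTS titration) were added to PC12 cells expressing an ecdysone-driven HTT exon 1 Q103–GFP fusion after induction with 100 nM tebufenozide. Aggregate formation was measured as GFP objects in cell lysates.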", "values": [
      {"compound": "COc1ccc(Cl)cc1NC(=O)COC(=O)CNC(=O)c1ccc([N+](=O)[O-])c(C)c1", "Potency": "inconclusive: 2.82 µM [inhibitor, single point]"},
      {"compound": "BrC(=C\\c1ccccc1)/C=N/n1cnnc1", "Potency": "inconclusive: 22.4 µM [inhibitor, single point]"},
      {"compound": "CCc1cc2c(=O)c(-c3ccc4c(c3)OCCO4)coc2cc1OS(C)(=O)=O", "Potency": "inconclusive: 35.5 µM [inhibitor, single point]"},
      {"compound": "CCCCN(CCCNC(=O)c1c(C)cc(=O)oc1C)c1ccccc1", "Potency": "inactive"},
      {"compound": "O=C(C1=C(O)/C(=C/c2ccc(O)cc2)CCC1)C(F)(F)F", "Potency": "inconclusive: 10 µM [inhibitor, partial curve]"},
      {"compound": "S=C(NCCN1CCOCC1)Nc1cccc2ccccc12", "Potency": "active: 3.55 µM"},
      {"compound": "COc1ccc(-n2sc3c(c2=S)-c2cc(OC)ccc2NC3(C)C)cc1", "Potency": "inconclusive: 25.1 µM [inhibitor, partial curve, poor fit]"},
      {"compound": "Cc1ccc(N(C(=O)C(F)(F)F)C(C(=O)NC2CCCCC2)c2cccs2)cc1", "note": "(stereo unspecified)", "Potency": "inactive"},
      {"compound": "Cc1cc(C)nc(SCc2ccc(C(=O)NNC(=O)Nc3cccc(Cl)c3)cc2)n1", "Potency": "inconclusive: 15.8 µM [inhibitor, single point]"},
      {"compound": "Cc1cc(C)cc(NCC(=O)Nc2c(C)cccc2C)c1", "Potency": "inconclusive: 35.5 µM [activator, single point]"},
      {"compound": "O=C1c2ccc(Oc3ccc4c(c3)C(=O)N(CCCO)C4=O)cc2C(=O)N1CCCO", "Potency": "active: 5.62 µM"},
      {"compound": "CC1CCN(c2ccc(C(=O)NCc3ccc4c(c3)OCO4)cc2[N+](=O)[O-])CC1", "Potency": "inconclusive: 11.2 µM [inhibitor, partial curve, poor fit]"},
      {"compound": "O=C(COc1ccc2ccc(=O)oc2c1)N1CCc2ccccc21", "Potency": "inactive"},
      {"compound": "Cc1ccc2c(CSc3nc4ccccc4c(=O)n3CCCO)cc(=O)oc2c1C", "activity change, negative = inhibition": "inactive: -28.6% [at 9.22 µM]"},
      {"compound": "O=C(Nc1ccc2c(c1)CCC2)c1ccccc1F", "Potency": "inconclusive: 35.5 µM [inhibitor, single point]"},
      {"compound": "c1ccc(N2CCN(c3ncnc4c3oc3ccccc34)CC2)cc1", "Potency": "inconclusive: 35.5 µM [inhibitor, single point]"},
      {"compound": "Cc1cc(C)cc(NC(=O)c2ccc(CSc3nnnn3C)cc2)c1", "Potency": "inactive"},
      {"compound": "Cc1sc2ncn3ncnc3c2c1C", "Potency": "inconclusive: 0.562 µM [inhibitor, full curve, poor fit]"},
      {"compound": "C=CCn1c(-c2ccc(S(=O)(=O)N3CCOCC3)cc2)csc1=Nc1ccccc1", "Potency": "inconclusive: 10 µM [inhibitor, partial curve]"},
      {"compound": "Cc1cc(C)c(-n2nnnc2SC(C)C)c(C)c1", "Potency": "inactive"},
      {"compound": "CCN(CC)c1ccc(NC2=C(Cl)C(=O)c3ccccc3C2=O)cc1", "Potency": "inconclusive: 35.5 µM [inhibitor, single point]"},
      {"compound": "O=C(O)CC1=C(c2ccc(F)cc2)CCC1=O", "Potency": "inconclusive: 28.2 µM [inhibitor, partial curve]"},
      {"compound": "CCc1ccccc1NS(=O)(=O)c1ccc2[nH]cc(C(=O)NC3CCCC3)c(=O)c2c1", "Potency": "inactive"},
      {"compound": "Cc1cccc(OC(C)c2ccnc3nc(/N=C/N(C)C)nn23)c1", "note": "(stereo unspecified)", "Potency": "inactive"},
      {"compound": "Cc1c(C(=O)O)oc2ccc(S(=O)(=O)NCc3ccc(F)cc3)cc12", "Potency": "inactive"},
      {"compound": "O=C(/C=C/NNC(=O)c1ccccc1)c1ccccc1", "activity change, negative = inhibition": "inactive: 0.689% [at 9.22 µM]"},
      {"compound": "O=C(Cc1ccc(Cl)cc1)Nc1cccc(S(=O)(=O)Nc2ccccc2F)c1", "Potency": "inactive"},
      {"compound": "O=S(=O)(Nc1nc2ccccc2nc1N1CCc2ccccc2C1)c1ccc(Br)cc1", "Potency": "active: 7.08 µM"},
      {"compound": "O=S(=O)(NCc1ccco1)c1ccc2c(c1)Cc1ccccc1-2", "Potency": "inconclusive: 7.94 µM [activator, partial curve]"},
      {"compound": "Cc1ccc(N=Cc2c(O)cc(C)oc2=O)c(C)c1", "Potency": "inconclusive: 7.08 µM [activator, partial curve]"},
      {"compound": "Cc1nc2ccccc2nc1SCC(=O)c1ccccc1", "Potency": "inconclusive: 15.8 µM [inhibitor, single point]"},
      {"compound": "OC(C#CCN1CCCCC1)c1ccccc1", "note": "(stereo unspecified)", "Potency": "inconclusive: 5.62 µM [activator, single point]"},
      {"compound": "Cc1ccc(NC(=O)C2=C(O)c3sccc3N(C)S2(=O)=O)cc1", "Potency": "inactive"},
      {"compound": "COc1ccc(/C=N/NC(=O)c2cccc(OC(F)(F)C(F)F)c2)c(OC)c1OC", "Potency": "inconclusive: 3.16 µM [activator, single point]"},
      {"compound": "CC(=O)Nc1ccc(S(=O)(=O)NC2=C(N3CCN(c4ccc(F)cc4)CC3)C(=O)c3ccccc3C2=O)cc1", "Potency": "inconclusive: 35.5 µM [inhibitor, single point]"},
      {"compound": "COC(C(=O)Nc1ccc(C(C)=O)cc1)c1ccccc1", "note": "(stereo unspecified)", "Potency": "inactive"},
      {"compound": "O=C(Cn1ncc(Cl)c(Cl)c1=O)c1ccc(Cl)cc1", "Potency": "inconclusive: 14.1 µM [inhibitor, single point]"},
      {"compound": "Cc1ccc(S(=O)(=O)N(C)c2ccc(OCC(=O)Nc3nc4ccccc4s3)cc2)cc1", "Potency": "inconclusive: 11.2 µM [inhibitor, partial curve]"},
      {"compound": "COCCCNC(NC(=O)c1ccc(Br)cc1)C(Cl)(Cl)Cl", "note": "(stereo unspecified)", "Potency": "inconclusive: 3.16 µM [inhibitor, single point]"},
      {"compound": "CN(C)CCCn1c(SCC(=O)N2c3ccccc3Sc3ccccc32)nc2ccccc2c1=O", "Potency": "inconclusive: 35.5 µM [inhibitor, single point]"},
      {"compound": "O=C(Nc1ccc([N+](=O)[O-])cc1)Nc1ccc([N+](=O)[O-])cc1", "Potency": "inactive"},
      {"compound": "COc1ccc(C(=O)C2CCN(S(=O)(=O)c3ccc4c(c3)OCCO4)CC2)cc1", "Potency": "inconclusive: 11.2 µM [inhibitor, single point]"},
      {"compound": "O=C1c2cccc3cc([N+](=O)[O-])cc(c23)C(=O)N1CCN1CCCC1", "Potency": "inconclusive: 5.01 µM [inhibitor, single point]"},
      {"compound": "Cc1cc(=O)oc2cc(OCCCN3C(=O)c4ccccc4C3=O)ccc12", "Potency": "inactive"},
      {"compound": "Cn1cccc1/C=C(\\C#N)c1ccccc1", "Potency": "inactive"},
      {"compound": "Cn1nnnc1SCc1cc(=O)n2ccsc2n1", "Potency": "inactive"},
      {"compound": "COc1cccc2c(SCC(=O)N/N=C/c3ccc(O)c(O)c3)cc(C)nc12", "Potency": "inconclusive: 3.16 µM [activator, partial curve, poor fit]"},
      {"compound": "Cc1cccc(C2Nc3ccccc3C(=O)N2c2ccc(F)cc2)n1", "note": "(stereo unspecified)", "Potency": "inconclusive: 2.82 µM [inhibitor, single point]"},
      {"compound": "Cc1ccc(/C=[N+](\\[O-])c2ccc(N(C)C)cc2)c2nsnc12", "Potency": "active: 11.2 µM"},
      {"compound": "CN(C)CCN1C(=O)C(=O)/C(=C(/O)c2ccc3c(c2)OCCO3)C1c1ccccn1", "note": "(stereo unspecified)", "activity change, negative = inhibition": "inactive: -10.6% [at 9.22 µM]"},
      {"compound": "COc1ccc2cc3c(N)nn(C(=O)c4ccc(F)cc4)c3nc2c1", "Potency": "active: 2.82 µM"},
      {"compound": "Cc1c(C(=O)N/N=C/C(C)C)[nH]c2ccc([N+](=O)[O-])cc12", "Potency": "active: 7.08 µM"},
      {"compound": "Clc1ccc(-c2csc3ncnc(Cl)c23)cc1", "Potency": "inconclusive: 17.8 µM [activator, single point]"},
      {"compound": "Cc1ccc(CNC(=O)CN(c2cccc([N+](=O)[O-])c2)S(=O)(=O)c2ccccc2)cc1", "Potency": "inconclusive: 15.8 µM [activator, single point]"},
      {"compound": "COc1ccc(CN2CCOCC2)cc1Br", "Potency": "inconclusive: 35.5 µM [activator, single point]"},
      {"compound": "COc1cc(C)c(C)cc1S(=O)(=O)N1CCN(Cc2ccc3c(c2)OCO3)CC1", "Potency": "inconclusive: 20 µM [inhibitor, partial curve]"},
      {"compound": "CCn1c(=O)c2c(cnn2C)c2ccccc21", "Potency": "active: 8.91 µM"},
      {"compound": "O=C(c1cccc(COc2ccc(Cl)cc2Cl)c1)N1CCN(c2ccccn2)CC1", "Potency": "inconclusive: 35.5 µM [inhibitor, single point]"},
      {"compound": "O=C(OCCN(C1=NS(=O)(=O)c2ccccc21)c1ccccc1Cl)c1ccc(Cl)cc1", "Potency": "inconclusive: 0.631 µM [inhibitor, full curve]"},
      {"compound": "CC(C)N1C(=O)C2C(C(=O)NC3CCCCC3)C3C=CC2(O3)C1C(=O)NC1CCCC1", "note": "(stereo unspecified)", "Potency": "inconclusive: 5.62 µM [inhibitor, single point]"},
      {"compound": "O=C1c2ccccc2CC1(Cc1ccccc1)Cc1ccccc1", "Potency": "inconclusive: 20 µM [inhibitor, single point]"},
      {"compound": "Cc1ccc(Oc2ccccc2/C=C2\\SC(=O)N(C)C2=O)cc1", "Potency": "inconclusive: 35.5 µM [inhibitor, single point]"},
      {"compound": "Cc1cccc(NC(=S)N(CCCN2CCOCC2)Cc2cn(C)c3ccccc23)c1", "Potency": "active: 8.91 µM"},
      {"compound": "O=C(Nc1nnc(CSCc2ccc(Cl)cc2)s1)c1cccc([N+](=O)[O-])c1", "Potency": "inconclusive: 35.5 µM [inhibitor, single point]"},
      {"compound": "Cc1c(C)c2cc3c4c(oc3c(C)c2oc1=O)CCCC4", "Potency": "inconclusive: 10 µM [inhibitor, single point]"},
      {"compound": "CCN(CC)S(=O)(=O)c1cccc(C(=O)/C=C2/N(C)c3ccccc3C2(C)C)c1", "Potency": "inactive"},
      {"compound": "O=C1CC(c2cccc(Cl)c2)CC(O)=C1C=Nc1ccccc1", "note": "(stereo unspecified)", "Potency": "inconclusive: 35.5 µM [inhibitor, single point]"},
      {"compound": "Cc1ccc(S(=O)(=O)N(C(=O)c2ccncc2)c2ccc3oc4c(c3c2)CCCC4)cc1[N+](=O)[O-]", "Potency": "inconclusive: 35.5 µM [inhibitor, single point]"},
      {"compound": "O=C(CCn1nc(-c2ccccc2)ccc1=O)N1CCCC1", "Potency": "inconclusive: 0.891 µM [activator, single point]"},
      {"compound": "c1ccc(CCn2nnnc2C(c2cccs2)N2CCN(Cc3ccc4c(c3)OCO4)CC2)cc1", "note": "(stereo unspecified)", "Potency": "inconclusive: 3.16 µM [activator, single point]"},
      {"compound": "CC1(C)COC(c2ccc(F)c([N+](=O)[O-])c2)=N1", "Potency": "active: 35.5 µM"}
    ]}
  ]
}
